Binding data for one molecule are collected here from paper PMC10123114.

No constants are given. Whether binding was seen depends on the method and setting. In cells and extracts the contact can be indirect. Sequences can lack the tags named with a protein.

For the assay, the target named is T1, GFP-SHQ1, Q6PI26.
T1 chain: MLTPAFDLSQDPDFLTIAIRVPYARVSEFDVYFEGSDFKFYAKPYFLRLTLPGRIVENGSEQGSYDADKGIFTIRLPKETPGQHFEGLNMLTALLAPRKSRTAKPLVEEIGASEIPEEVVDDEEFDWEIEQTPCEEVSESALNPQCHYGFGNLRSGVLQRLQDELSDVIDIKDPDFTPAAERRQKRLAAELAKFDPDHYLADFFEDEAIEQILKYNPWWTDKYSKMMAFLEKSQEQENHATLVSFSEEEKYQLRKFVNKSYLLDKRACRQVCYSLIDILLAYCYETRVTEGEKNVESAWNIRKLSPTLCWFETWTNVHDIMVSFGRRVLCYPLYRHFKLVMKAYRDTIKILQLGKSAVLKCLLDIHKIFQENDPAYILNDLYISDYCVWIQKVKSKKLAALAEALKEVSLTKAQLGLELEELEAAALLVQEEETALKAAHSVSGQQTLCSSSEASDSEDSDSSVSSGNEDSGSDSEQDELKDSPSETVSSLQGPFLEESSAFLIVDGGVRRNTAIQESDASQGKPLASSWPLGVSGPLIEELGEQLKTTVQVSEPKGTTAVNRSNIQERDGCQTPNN
The assay is described as follows: co-IP; anti-Flag M2 affinity gel or GFP-Trap on total extracts of HEK293 Flp-In T-REx cells, tagged bait expressed 3 h; RSB150 (10 mM Tris-HCl pH 7.5, 150 mM NaCl, 2.5 mM MgCl2) with 0.05% NP-40, 2 h at 4 °C; without RNase A; western blot. The note with it: remark: other sources report otherwise. (A western blot detects proteins with antibodies after separation by electrophoresis.)

B1: SHQ1 (endogenous), Q6PI26 1-577 (protein)
chain: T1 chain
On to B1, for which the binding entry was “no binding”.
